Data taken from the supplement of paper PMC12067093, “Discovery and optimisation of a covalent ligand for TRIM25 and its application to targeted protein ubiquitination” (Chemical Science, 2025).
Some of the results follow.

The chains behind the UniProt entries cited, without tags or fusion partners. Where a name states a change or a piece, a line headed by the entry shows the natural chain unless it says otherwise.
UniProt O95573: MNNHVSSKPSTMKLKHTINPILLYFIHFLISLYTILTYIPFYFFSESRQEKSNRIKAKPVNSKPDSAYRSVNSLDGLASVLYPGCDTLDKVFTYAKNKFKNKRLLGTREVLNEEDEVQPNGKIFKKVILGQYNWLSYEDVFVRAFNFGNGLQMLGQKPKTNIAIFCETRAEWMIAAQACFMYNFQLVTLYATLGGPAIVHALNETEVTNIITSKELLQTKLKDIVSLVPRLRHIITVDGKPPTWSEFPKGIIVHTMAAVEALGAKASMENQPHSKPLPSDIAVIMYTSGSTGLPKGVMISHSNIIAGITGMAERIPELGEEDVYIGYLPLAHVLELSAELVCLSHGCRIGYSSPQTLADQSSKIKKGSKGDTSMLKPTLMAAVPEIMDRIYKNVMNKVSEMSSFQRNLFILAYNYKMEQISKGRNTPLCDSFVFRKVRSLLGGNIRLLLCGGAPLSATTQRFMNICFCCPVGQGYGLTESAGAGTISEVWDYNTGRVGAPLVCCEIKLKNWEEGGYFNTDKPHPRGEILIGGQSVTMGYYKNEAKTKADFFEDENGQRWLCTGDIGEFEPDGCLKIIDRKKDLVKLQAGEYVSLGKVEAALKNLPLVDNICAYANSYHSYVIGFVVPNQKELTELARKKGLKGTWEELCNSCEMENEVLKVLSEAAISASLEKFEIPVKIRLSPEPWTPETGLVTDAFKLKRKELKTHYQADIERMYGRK
UniProt Q9H2P0: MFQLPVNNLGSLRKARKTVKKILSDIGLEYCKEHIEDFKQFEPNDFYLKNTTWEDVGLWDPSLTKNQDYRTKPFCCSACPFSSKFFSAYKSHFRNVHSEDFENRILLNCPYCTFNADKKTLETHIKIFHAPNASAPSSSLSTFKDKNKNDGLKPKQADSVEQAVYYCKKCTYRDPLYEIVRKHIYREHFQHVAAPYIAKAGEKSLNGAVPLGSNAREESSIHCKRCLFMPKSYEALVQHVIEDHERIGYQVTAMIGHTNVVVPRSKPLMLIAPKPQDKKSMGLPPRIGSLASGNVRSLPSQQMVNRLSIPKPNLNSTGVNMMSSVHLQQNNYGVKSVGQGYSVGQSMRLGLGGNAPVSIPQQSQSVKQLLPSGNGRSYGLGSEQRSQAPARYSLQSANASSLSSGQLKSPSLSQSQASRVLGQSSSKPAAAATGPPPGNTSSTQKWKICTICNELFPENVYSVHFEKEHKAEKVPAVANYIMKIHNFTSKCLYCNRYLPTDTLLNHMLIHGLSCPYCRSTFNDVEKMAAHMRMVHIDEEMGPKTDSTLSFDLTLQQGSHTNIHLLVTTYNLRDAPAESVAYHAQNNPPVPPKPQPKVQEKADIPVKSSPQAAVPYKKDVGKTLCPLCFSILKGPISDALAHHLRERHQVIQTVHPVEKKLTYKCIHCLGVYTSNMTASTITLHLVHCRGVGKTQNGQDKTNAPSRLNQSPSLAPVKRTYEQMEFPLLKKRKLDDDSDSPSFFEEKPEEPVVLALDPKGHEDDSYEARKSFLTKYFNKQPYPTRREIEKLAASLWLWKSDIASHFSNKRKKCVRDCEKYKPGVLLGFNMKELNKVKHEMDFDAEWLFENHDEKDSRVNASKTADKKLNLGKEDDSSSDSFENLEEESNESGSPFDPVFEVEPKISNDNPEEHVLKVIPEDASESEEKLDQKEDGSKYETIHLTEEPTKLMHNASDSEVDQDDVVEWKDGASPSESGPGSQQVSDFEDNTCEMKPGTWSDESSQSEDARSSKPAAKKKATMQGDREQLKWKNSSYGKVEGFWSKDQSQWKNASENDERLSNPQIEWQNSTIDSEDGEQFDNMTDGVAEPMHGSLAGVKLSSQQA
UniProt P55265: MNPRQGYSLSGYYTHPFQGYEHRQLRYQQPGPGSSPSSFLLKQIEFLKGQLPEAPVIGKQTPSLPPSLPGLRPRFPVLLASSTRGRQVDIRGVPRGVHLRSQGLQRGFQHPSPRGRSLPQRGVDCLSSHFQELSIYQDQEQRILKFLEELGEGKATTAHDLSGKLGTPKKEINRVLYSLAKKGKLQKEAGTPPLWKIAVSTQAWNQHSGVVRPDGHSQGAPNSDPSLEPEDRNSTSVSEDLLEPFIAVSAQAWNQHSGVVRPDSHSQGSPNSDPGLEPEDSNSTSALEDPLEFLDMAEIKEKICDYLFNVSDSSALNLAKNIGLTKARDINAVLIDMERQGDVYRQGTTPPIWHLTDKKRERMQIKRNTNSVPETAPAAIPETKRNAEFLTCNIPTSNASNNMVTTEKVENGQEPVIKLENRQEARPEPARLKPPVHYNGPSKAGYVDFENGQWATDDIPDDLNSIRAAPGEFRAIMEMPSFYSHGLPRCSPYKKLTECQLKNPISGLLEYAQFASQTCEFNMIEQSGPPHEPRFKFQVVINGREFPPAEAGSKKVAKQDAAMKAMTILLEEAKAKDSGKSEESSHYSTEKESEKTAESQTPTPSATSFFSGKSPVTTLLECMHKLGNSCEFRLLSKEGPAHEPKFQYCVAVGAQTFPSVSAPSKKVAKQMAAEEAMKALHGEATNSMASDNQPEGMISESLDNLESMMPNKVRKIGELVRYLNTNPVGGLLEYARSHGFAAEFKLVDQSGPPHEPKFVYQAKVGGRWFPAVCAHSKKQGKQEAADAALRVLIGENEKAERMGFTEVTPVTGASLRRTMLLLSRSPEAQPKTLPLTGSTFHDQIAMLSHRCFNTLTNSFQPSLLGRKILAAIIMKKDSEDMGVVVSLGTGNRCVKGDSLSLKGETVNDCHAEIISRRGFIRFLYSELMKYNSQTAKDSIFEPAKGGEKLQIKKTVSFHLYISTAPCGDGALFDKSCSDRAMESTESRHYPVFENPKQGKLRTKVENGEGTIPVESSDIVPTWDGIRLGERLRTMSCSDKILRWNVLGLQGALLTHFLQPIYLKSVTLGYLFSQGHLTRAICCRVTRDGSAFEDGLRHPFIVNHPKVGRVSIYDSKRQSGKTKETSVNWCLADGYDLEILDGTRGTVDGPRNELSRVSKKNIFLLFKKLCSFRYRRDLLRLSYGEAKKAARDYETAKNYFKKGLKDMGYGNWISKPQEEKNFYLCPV
UniProt P11766: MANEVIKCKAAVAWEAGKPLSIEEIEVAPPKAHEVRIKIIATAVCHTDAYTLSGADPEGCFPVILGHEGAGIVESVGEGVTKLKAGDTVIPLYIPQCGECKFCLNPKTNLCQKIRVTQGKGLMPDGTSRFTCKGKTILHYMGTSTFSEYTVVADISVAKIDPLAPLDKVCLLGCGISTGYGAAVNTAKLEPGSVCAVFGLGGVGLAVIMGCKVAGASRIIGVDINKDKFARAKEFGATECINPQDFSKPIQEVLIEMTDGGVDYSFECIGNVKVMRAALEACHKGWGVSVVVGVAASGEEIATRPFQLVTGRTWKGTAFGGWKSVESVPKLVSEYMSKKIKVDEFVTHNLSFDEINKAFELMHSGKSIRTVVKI
UniProt O60488: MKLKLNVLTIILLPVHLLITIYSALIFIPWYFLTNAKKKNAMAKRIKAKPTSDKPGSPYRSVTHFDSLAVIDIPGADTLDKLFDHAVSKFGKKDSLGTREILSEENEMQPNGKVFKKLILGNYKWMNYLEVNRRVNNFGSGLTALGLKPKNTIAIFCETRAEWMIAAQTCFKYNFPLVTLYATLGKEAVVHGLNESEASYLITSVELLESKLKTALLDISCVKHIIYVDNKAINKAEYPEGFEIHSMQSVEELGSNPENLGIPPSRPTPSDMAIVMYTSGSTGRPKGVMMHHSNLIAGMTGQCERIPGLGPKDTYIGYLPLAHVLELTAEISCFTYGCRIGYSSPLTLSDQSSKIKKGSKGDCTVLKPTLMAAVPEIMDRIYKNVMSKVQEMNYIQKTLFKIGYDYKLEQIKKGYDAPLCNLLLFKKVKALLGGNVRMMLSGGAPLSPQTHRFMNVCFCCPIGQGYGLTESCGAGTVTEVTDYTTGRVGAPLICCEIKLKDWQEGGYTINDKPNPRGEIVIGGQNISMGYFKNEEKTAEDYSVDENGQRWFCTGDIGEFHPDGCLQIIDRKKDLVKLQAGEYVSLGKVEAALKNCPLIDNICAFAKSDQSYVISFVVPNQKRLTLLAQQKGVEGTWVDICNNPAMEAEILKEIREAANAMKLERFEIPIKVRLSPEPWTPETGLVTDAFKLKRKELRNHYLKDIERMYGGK
UniProt P54922: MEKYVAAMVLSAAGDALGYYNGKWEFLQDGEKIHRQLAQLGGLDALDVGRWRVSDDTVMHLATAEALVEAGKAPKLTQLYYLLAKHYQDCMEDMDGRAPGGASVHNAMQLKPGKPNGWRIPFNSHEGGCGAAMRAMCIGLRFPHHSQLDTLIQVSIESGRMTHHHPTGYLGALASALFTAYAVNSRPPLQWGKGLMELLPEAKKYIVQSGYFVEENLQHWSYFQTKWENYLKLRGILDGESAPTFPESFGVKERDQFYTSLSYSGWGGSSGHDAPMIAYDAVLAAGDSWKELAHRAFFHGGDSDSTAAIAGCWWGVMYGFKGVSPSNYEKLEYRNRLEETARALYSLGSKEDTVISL
UniProt O43707, whole entry, looked up: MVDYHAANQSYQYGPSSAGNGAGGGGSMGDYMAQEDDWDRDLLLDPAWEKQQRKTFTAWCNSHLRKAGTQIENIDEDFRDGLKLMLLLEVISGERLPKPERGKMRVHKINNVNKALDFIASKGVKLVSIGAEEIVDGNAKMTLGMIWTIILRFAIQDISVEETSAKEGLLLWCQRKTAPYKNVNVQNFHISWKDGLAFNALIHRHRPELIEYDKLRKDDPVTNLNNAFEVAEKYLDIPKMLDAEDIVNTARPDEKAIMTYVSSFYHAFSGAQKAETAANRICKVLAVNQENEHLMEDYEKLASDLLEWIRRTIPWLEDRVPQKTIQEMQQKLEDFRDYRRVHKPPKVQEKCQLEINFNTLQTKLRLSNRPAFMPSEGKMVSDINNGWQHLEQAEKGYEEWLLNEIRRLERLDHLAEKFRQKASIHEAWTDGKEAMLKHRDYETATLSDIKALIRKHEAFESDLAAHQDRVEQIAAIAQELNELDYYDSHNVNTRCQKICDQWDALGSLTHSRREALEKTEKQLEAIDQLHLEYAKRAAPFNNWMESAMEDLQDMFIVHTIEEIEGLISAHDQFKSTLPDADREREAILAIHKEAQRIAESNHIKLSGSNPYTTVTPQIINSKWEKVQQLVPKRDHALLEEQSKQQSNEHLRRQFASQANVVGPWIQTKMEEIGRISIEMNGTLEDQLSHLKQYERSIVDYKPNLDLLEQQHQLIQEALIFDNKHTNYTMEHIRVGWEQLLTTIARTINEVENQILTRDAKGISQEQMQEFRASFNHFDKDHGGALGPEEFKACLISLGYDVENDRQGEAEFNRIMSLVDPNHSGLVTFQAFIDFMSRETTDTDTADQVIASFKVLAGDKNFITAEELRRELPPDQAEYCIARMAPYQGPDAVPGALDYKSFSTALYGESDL
UniProt P35612: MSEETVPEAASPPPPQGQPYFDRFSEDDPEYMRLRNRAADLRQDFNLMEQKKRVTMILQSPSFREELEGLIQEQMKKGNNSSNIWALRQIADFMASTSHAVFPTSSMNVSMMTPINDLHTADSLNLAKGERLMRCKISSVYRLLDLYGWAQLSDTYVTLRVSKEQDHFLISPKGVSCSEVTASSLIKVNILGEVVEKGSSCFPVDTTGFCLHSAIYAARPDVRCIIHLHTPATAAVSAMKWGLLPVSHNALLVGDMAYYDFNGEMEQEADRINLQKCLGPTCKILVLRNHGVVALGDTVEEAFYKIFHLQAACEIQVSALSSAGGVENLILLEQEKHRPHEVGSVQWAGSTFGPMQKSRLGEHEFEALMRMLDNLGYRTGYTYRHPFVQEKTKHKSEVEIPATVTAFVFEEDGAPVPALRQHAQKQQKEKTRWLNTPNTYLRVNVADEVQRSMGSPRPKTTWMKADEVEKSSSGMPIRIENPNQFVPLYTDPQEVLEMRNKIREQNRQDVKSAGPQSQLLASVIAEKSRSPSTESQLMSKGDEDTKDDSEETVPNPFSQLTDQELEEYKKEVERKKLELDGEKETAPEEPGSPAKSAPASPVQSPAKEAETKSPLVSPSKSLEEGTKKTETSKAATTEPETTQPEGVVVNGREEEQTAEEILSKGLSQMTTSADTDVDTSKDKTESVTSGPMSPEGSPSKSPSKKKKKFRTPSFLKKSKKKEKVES
UniProt Q16186: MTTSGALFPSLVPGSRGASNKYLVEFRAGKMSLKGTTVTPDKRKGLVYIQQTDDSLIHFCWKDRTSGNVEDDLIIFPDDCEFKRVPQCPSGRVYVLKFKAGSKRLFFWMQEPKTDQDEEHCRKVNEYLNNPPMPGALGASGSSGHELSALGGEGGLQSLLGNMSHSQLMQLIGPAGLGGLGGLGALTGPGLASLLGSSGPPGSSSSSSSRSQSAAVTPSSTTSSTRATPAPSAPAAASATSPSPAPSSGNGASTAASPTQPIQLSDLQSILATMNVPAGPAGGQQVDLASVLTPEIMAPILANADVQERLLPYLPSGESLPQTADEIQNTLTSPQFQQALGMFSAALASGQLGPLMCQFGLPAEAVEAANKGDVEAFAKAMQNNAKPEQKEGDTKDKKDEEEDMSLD

Compound: Cc1cc(ccc1-c1ccccc1)C(=O)N1CCCN(CC1)C(=O)CCl [compound 10]
Assay: probe-labelled cysteine peptide fold change vs DMSO (competition) (log2 fold change); higher = less target engagement (more negative = stronger competition)
Details: THP-1, incubation time: 4 h
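Note: competitive profiling in live THP-1 cells: cysteine peptides tagged with an iodoacetamide desthiobiotin (IA-DTB) probe, intensity after compound treatment relative to DMSO-treated cells.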

Target	probe-labelled cysteine peptide fold change (10 µM)	probe-labelled cysteine peptide fold change (50 µM)
AGO2_Q9UKV8_272_VEITHCGQMK (UniProt Q9UKV8)	-0.0568	-0.0776
ACTR2_P61160_11_VVVCDNGTGFVK (UniProt P61160)	-0.054	0.175
ACSL3_O95573_503+504_VGAPLVCCEIK (UniProt O95573)	0.0275	-0.45
ADNP_Q9H2P0_452_ICTICNELFPENVYSVHFEK (UniProt Q9H2P0)	-0.157	-0.0457
ACTR5_Q9H9F9_48_AGWACPGQDPGPEPR (UniProt Q9H9F9)	0.0426	-0.0673
ADAR_P55265_622_SPVTTLLECMHK (UniProt P55265)	0.00696	-0.207
ADH5_P11766_240_EFGATECINPQDFSK (UniProt P11766)	-0.307	0.241
ACTG1_P63261_17_MEEEIAALVIDNGSGMCK (UniProt P63261)	-0.614	-0.292
ACSL4_O60488_420_GYDAPLCNLLLFK (UniProt O60488)	-0.123	-0.309
ACSL4_O60488_363_GDCTVLKPTLMAAVPEIMDR (UniProt O60488)	0.108	-0.0558
AGL_P35573_126_VGADNHVLPLDCVTLQTFLAK (UniProt P35573)	0.128	0.0379
ACSL1_P33121_241_CGVEVTSMK (UniProt P33121)	-0.0907	-0.278
AFF3_P51826_301_SGETNSCVEEIIR (UniProt P51826)	-0.248	-0.0755
ADPRH_P54922_129_IPFNSHEGGCGAAMR (UniProt P54922)	-0.0992	-0.00192
ADK_P55263_160_SLIANLAAANCYKK (UniProt P55263)	-0.309	-1.01
AGGF1_Q8N302_307_AFSVEHTSCNEEENFANMK (UniProt Q8N302)	0.226	0.103
ADH5_P11766_97+100_AGDTVIPLYIPQCGECK (UniProt P11766)	0.0159	-0.657
ADIPOR1_Q96A54_54_AEEEQTCPVPQEEEEEVR (UniProt Q96A54)	-0.269	-0.0957
AGL_P35573_212_EWNVICITDVVYNHTAANSK (UniProt P35573)	0.0898	0.132
ADSL_P30566_173_CCLWIQDLCMDLQNLK (UniProt P30566)	-0.0248	0.431
ACTR2_P61160_20_CGYAGSNFPEHIFPALVGR (UniProt P61160)	-0.00703	0.279
ADAR_P55265_1036_TMSCSDK (UniProt P55265)	-0.163	0.0577

Target	probe-labelled cysteine peptide fold change (10 µM)	probe-labelled cysteine peptide fold change (50 µM)
ADAM10_O14672_222_NTCQLYIQTDHLFFK (UniProt O14672)	0.033	0.208
ADNP_Q9H2P0_167_QADSVEQAVYYCK (UniProt Q9H2P0)	0.131	-0.0465
ACTR3_P61158_8_LPACVVDCGTGYTK (UniProt P61158)	-0.09	-0.163
ADSS_P30520_338_CGWLDLVLLK (UniProt P30520)	0.0389	0.313
ADSL_P30566_98+99_HDVMAHVHTFGHCCPK (UniProt P30566)	-0.145	-0.645
ACTR6_Q9GZN1_28_IGYSHENVSVIPNCQFR (UniProt Q9GZN1)	0.029	-0.0803
ADH5_P11766_282_AALEACHK (UniProt P11766)	-0.00579	-0.00597
ADGRL2_O95490_160_AGAWCK (UniProt O95490)	-0.121	-0.0724
AGK_Q53H12_72_KATVFLNPAACK (UniProt Q53H12)	-0.0296	-0.158
ADAT3_Q96EY9_249_GTYDFRPFPACSFAPAAAPQAVR (UniProt Q96EY9)	0.122	0.397
AGA_P20933_163_NCQPNYWR (UniProt P20933)	-0.21	-0.114
ADAM15_Q13444_409_ALLDGMGSCLFER (UniProt Q13444)	-0.0293	0.0134
ADAR_P55265_490_CSPYKK (UniProt P55265)	-0.379	-0.683
ADNP2_Q6IQ32_220_CNANASSQDALMYHILTSDIHR (UniProt Q6IQ32)	0.0714	0.0124
ACY1_Q03154_49_QLGLGCQK (UniProt Q03154)	0.128	0.132
AFTPH_Q6ULP2_659_IFEACFPSILVPDAEEEVTSLK (UniProt Q6ULP2)	0.0219	-0.0706
ADAM17_P78536_333_VCLAHLFTYQDFDMGTLGLAYVGSPR (UniProt P78536)	-0.0733	0.266
ACP1_P24666_146_QLIIEDPYYGNDSDFETVYQQCVR (UniProt P24666)	0.133	0.299
ACTN4_O43707_499_ICDQWDALGSLTHSR (UniProt O43707)	0.0925	0.0683
AFG1L_Q8WV93_72_ALAVCHGPLDHYDFLIK (UniProt Q8WV93)	0.0611	0.142
ADCY9_O60503_1333_AIEKDDCDETGIEEANELTK (UniProt O60503)	-0.112	-0.417
ACOX1_Q15067_392_AFTSWTANTGIEACR (UniProt Q15067)	0.0592	0.0993

Target	probe-labelled cysteine peptide fold change (10 µM)	probe-labelled cysteine peptide fold change (50 µM)
AGL_P35573_528_LDNCHSTPLHVAEYMLDAAR (UniProt P35573)	0.0113	-0.462
ADAM10_O14672_530_DDSDCAR (UniProt O14672)	0.552	1.2
ACTR8_Q9H981_351_ETFCHLDQDISGLQDHEFQIR (UniProt Q9H981)	0.113	0.168
ADNP2_Q6IQ32_74_TKPYCCGLCK (UniProt Q6IQ32)	0.0257	-0.104
ADAM10_O14672_173_YGPQGGCADHSVFER (UniProt O14672)	-0.129	-0.0295
ADD1_P35611_430_YSDVEVPASVTGYSFASDGDSGTCSPLR (UniProt P35611)	-0.202	-0.334
ADD2_P35612_177_GVSCSEVTASSLIK (UniProt P35612)	0.0303	0.0331
ADCY7_P51828_382_VGIHSGNVLCGVIGLR (UniProt P51828)	0.0372	0.0795
ACTN4_O43707_793_ACLISLGYDVENDR (UniProt O43707)	0.283	0.288
AGAP3_Q96P47_263_KQQLAIGPCK (UniProt Q96P47)	-0.377	-0.702
ACP2_P11117_345_APWPLSLPGCPHR (UniProt P11117)	-0.126	0.269
ADNP_Q9H2P0_449_ICTICNELFPENVYSVHFEK (UniProt Q9H2P0)	0.042	0.0582
ADGRL3_Q9HAR2_135_VFLCPGLLK (UniProt Q9HAR2)	0.0697	0.0353
ADK_P55263_336_PLTECIR (UniProt P55263)	0.157	0.369
AGGF1_Q8N302_494_CDPYVLEHGDEVK (UniProt Q8N302)	-0.119	0.156
ADAR_P55265_773_WFPAVCAHSK (UniProt P55265)	-0.121	-0.262
AGL_P35573_767_EVPQMCIPGK (UniProt P35573)	-0.0748	-0.0362
ACTN1_P12814_370_MVSDINNAWGCLEQVEK (UniProt P12814)	-0.0983	-0.361
AGA_P20933_179_YCGPYKPPGILK (UniProt P20933)	-0.203	0.0101
ACTR2_P61160_20_CGYAGSNFPEHIFPALVGRPIIR (UniProt P61160)	-0.0836	-0.0366
AFF1_P51825_1181_LSTNVCTLALNSSLVDLVHYTR (UniProt P51825)	-0.147	-0.00592
ADK_P55263_106_AATFFGCIGIDK (UniProt P55263)	0.11	0.0122

Target	probe-labelled cysteine peptide fold change (10 µM)	probe-labelled cysteine peptide fold change (50 µM)
AFG3L2_Q9Y4W6_525_KLASLTPGFSGADVANVCNEAALIAAR (UniProt Q9Y4W6)	-0.0223	-0.317
ACSS2_Q9NR19_554_KFPGYYVTGDGCQR (UniProt Q9NR19)	-0.00411	0.0226
ADRM1_Q16186_80_TSGNVEDDLIIFPDDCEFKR (UniProt Q16186)	-0.174	-0.215
AGL_P35573_259_FSCDVAEGK (UniProt P35573)	0.176	0.0148
ADRM1_Q16186_88_VPQCPSGR (UniProt Q16186)	-0.599	-0.0584
ADNP_Q9H2P0_223_EESSIHCK (UniProt Q9H2P0)	0.144	0.0562
ADD2_P35612_224_CIIHLHTPATAAVSAMK (UniProt P35612)	0.107	0.0189
AGA_P20933_64_ALASGGSALDAVESGCAMCER (UniProt P20933)	-0.106	-0.108
ADD1_P35611_253_CGLLPISPEALSLGEVAYHDYHGILVDEEEK (UniProt P35611)	0.0833	0.00593
ACOT9_Q9Y305_194_MQMFQLHGDEFCPVLDATFVMVAR (UniProt Q9Y305)	-0.228	-0.161
ADSL_P30566_180_CCLWIQDLCMDLQNLK (UniProt P30566)	-0.0411	0.389
ADARB1_P78563_393_GLALNDCHAEIISR (UniProt P78563)	-0.13	0.267
ADRM1_Q16186_60_GLVYIQQTDDSLIHFCWK (UniProt Q16186)	0.00467	0.138
ACSL3_O95573_503_VGAPLVCCEIK (UniProt O95573)	0.0585	-0.287
ADPRH_P54922_90_HYQDCMEDMDGR (UniProt P54922)	0.0025	0.114
AFF1_P51825_892_EADTCGQDPPK (UniProt P51825)	-0.00759	-0.221
ADK_P55263_160_SLIANLAAANCYK (UniProt P55263)	-0.0119	-0.156
AGO1_Q9UL18_304_RPASHQTFPLQLESGQTVECTVAQYFK (UniProt Q9UL18)	0.0164	0.0671
ACSL1_P33121_336_VVECVMLCHGAK (UniProt P33121)	0.15	-0.464
